Assay results taken from patent US6140058.
Negatives hold for the conditions tested.

Target: p53 wild type (Homo sapiens) (UniProt P04637)
Assay: EMSA
Details: purified recombinant protein, protein details: bacterial expression, Fraction III, label: 32P

Q: Does “AGCTTAGACATGCCTAGACATGCCTA / AGCTTAGGCATGTCTAGGCATGTCTA [PG p53 consensus site]” bind (PAb421-activated then NEM, inhibited)?
A: Result: no binding

Q: Does “AGCTTAGACATGCCTAGACATGCCTA / AGCTTAGGCATGTCTAGGCATGTCTA [PG p53 consensus site]” bind (latent, no activating protein)?
A: Result: no binding
